These are yes or no findings as the source states them, for the method shown. Some results given as binding are weak or reduced against the parent protein; the word gives no strength.

One molecule from paper PMC1557399 can be followed below.

The target in this experiment is FimA, structural subunit of the type I fimbrial rod (E. coli K-12) (UniProt P04128). The experiment can be described thus: AFM force spectroscopy; single type I fimbriae on bacteria immobilised on RNase B-coated glass, pulled through tip FimH by a 3M (RNase B)-coated AFM cantilever; constant-velocity and constant-force modes; room temperature.

B1: FimA, structural subunit of the type I fimbrial rod (protein, UniProt P04128 24-182)
chain: AATTVNGGTVHFKGEVVNAACAVDAGSVDQTVQLGQVRTASLAQEGATSSAVGFNIQLNDCDTNVASKAAVAFLGTAIDAGHTNVLALQSSAAGSATNVGVQILDRTGAALTLDGATFSSETTLNNGTNTIPFQARYFATGAATPGAANADATFKVQYQ
On to B1, for which the binding result is on record as “binds”.
